The results in this text go back to patent US20220185818A1, “PYRROLOHETEROCYCLIC DERIVATIVE, PREPARATION METHOD THEREFOR, AND APPLICATION THEREOF IN MEDICINE” (Jiangsu Hengrui Medicine Co., Ltd., priority 2019, published 2022).

The series can be described thus: Pharmacokinetics assay in mice. Particulars: female, C57, mouse, in vivo, po, 2 mg/kg.

As to `Cc1cnc(Nc2ccnn2C)nc1-c1cc2n(c1)C(=O)N([C@H](CO)c1cccc(Cl)c1)C2` [Example 3, (S)-2-(1-(3-Chlorophenyl)-2-hydroxyethyl)-6-(5-methyl-2-((1-methyl-1H-pyrazol-5-yl)amino)pyrimidin-4-yl)-1H-pyrrolo[1,2-c]imidazol-3(2H)-one], the AUC came to 2470 ng·h/mL, the CL/F stood at 13.5 mL/min/kg and the Vd/F stood at 4.1 L/kg.

For orientation: AUC means the area under the concentration-time curve, a measure of exposure. Broadly, the CL/F is clearance divided by bioavailability, as obtained after extravascular dosing. By Vd/F is commonly meant the volume of distribution divided by bioavailability.
